Data source: PubChem BioAssay AID493246 (Drosophila RNAi Screening Center, 2011)
The deposit covers about 21,000 reagents; shown is an unselected part of those that have a named target and a result. Of all reagents, 429 (2%) are marked active. 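Values are raw and not normalised between plates; calls rest on per-plate z-scores that were not deposited.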 A number with no mark means an inactive call. The record does not give: the amount of reagent, the time to read-out.

Assay: 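Genome-wide search for dsRNAs that reduce cell number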 (primary screen)
Cell system: Drosophila Kc and S2R+ cells
Reagents: long dsRNA against Drosophila genes
Measured: 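Raw, unnormalised count of remaining cells in each well; per-plate z-scores of cell number underlie the calls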
Reading the numbers: Kc cell number and S2R+ cell number: higher = more cells remaining
Call rule: 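Counted as a hit if cell number falls by a z-score of at least 3 within its plate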

no.	Target gene	Kc cell number, rep 1	Kc cell number, rep 2	S2R+ cell number, rep 1	S2R+ cell number, rep 2
1	Oda	1.53e6	1.50e6	1.10e6	1.23e6
2	Ufd4	1.48e6	1.55e6	1.17e6	1.30e6
3	CG8172	1.70e6	1.86e6	1.25e6	1.34e6
4	out	1.65e6	1.68e6	1.17e6	1.31e6
5	Tango10	5.85e5		8.53e5	
6	Acbp5	1.43e6	1.58e6	1.22e6	1.30e6
7	GXIVsPLA2	1.48e6	1.50e6	1.33e6	1.38e6
8	Gr93c	1.35e6	1.37e6	1.05e6	1.10e6
9	CG14598	1.63e6	1.78e6	1.30e6	1.42e6
10	CheB74a	1.42e6	1.52e6	1.10e6	1.27e6
11	CG4596	1.72e6	1.91e6	1.48e6	1.62e6
12	RN-tre	1.61e6	1.62e6	1.31e6	1.50e6
13	TwdlK	1.46e6	1.50e6	6.45e5	7.90e5
14	Orct	1.57e6	1.60e6	1.22e6	1.26e6
15	san	1.52e6	1.57e6	1.10e6	1.21e6
16	Ran	1.44e6	1.43e6	6.86e5	8.12e5
17	128up	1.31e6	1.37e6	1.18e6	1.15e6
18	CG9757	1.19e6	1.22e6	1.20e6	1.36e6
19	CG34150	1.16e6	1.48e6	1.12e6	1.14e6
20	CG3916	1.54e6	1.50e6	1.18e6	1.28e6
21	Ir51b	1.45e6	1.41e6	9.87e5	1.14e6
22	Lectin-galC1	1.53e6	1.60e6	1.25e6	3.32e5
23	ktub	1.46e6	1.57e6	1.08e6	1.09e6
24	COX1 (retired record)	1.53e6	1.57e6	1.11e6	1.25e6

A few values from above.
Result of Oda in “Kc cell number, rep 1”: 1.53e6
Value of 128up in “Kc cell number, rep 2”: 1.37e6
